PubChem BioAssay AID330 (DTP/NCI, 2004)
The list does not hold the whole screen: it gathers tests that were run many times, whatever their T/C, doses with no T/C, and many T/C values between a quarter and a half above the control. Further doses and runs are listed elsewhere. T/C gives the treated animals as a percentage of the vehicle group. Some doses have a count of surviving animals in place of a T/C: the source holds a T/C of zero for them, seemingly a mark for toxic or unscored doses. Some doses without a T/C left all or most animals alive at the check, yet need not have been tolerated: survival well below the control is almost never listed, so the zero probably covers shortened survival too. Counts of survivors are from the toxicity check (mostly the fifth day) where no day follows; animals may have died later. Schedule codes are those of the source, taken here to give the interval after Q, in days (D) or hours (H), and the number of doses after X. Some entries were tested several times; the values are given in rising order. Where survival is the endpoint, the PubChem record calls one and a half times the control and up active, and a quarter to a half above the control has no call in these data; cut-offs in other NCI protocols can differ.

Tested on: P388 leukemia ip, CD2F1 mice, survival T/C
Assay: NCI In Vivo Anticancer Drug Screen. Data for tumor model P388 Leukemia (intraperitoneal) in CD2F1 (CDF1) mice
Conditions: T/C endpoint: median survival time, higher T/C = longer survival
[1] = dose: 240.0 mg/kg/injection, schedule: Q01DX005 (ip), vehicle: Klucel (hydroxypropylcellulose) (HPC)

CCOC(=O)c1cc2c(cc1O)C1CC=C(C)[C@@H]3CCO[C@](OC)(C2)[C@]13C(=O)OC (some centres undefined)
survivor count (dose: 100.0 mg/kg/injection, schedule: Q01DX001 (ip), vehicle: saline with Tween-80): 6 of 6 | survivor count (dose: 200.0 mg/kg/injection, schedule: Q01DX001 (ip), vehicle: saline with Tween-80): 6 of 6 | survivor count (dose: 400.0 mg/kg/injection, schedule: Q01DX001 (ip), vehicle: saline with Tween-80): 6 of 6

COc1cc(C(=O)NOCc2cc3c(cc2Cl)OCO3)cc(OC)c1OC
survivor count (dose: 200.0 mg/kg/injection, schedule: Q04DX003 (ip), vehicle: saline sonified): 6 of 6

C[C@@](O)(/C=C/[C@H]1CC=CC(=O)O1)[C@@H](C[C@@H](O)\C=C/C=C\C=C\CO)OP(=O)(O)O
T/C (dose: 3.12 mg/kg/injection, schedule: Q01DX005 (ip), vehicle: other): 140 % of control | T/C (dose: 6.25 mg/kg/injection, schedule: Q01DX005 (ip), vehicle: other): 142 and 143 % of control | survivor count (dose: 25.0 mg/kg/injection, schedule: Q01DX005 (ip), vehicle: other): 3 of 5 | survivor count (dose: 50.0 mg/kg/injection, schedule: Q01DX005 (ip), vehicle: other): 0 of 5 and 0 of 6

CCc1ccc2c(-c3ccccc3)c3c(-c4ccccc4)c4ccccc4c(-c4ccccc4)c3c(-c3ccccc3)c2c1
survivor count (dose: 100.0 mg/kg/injection, schedule: Q01DX005 (ip), vehicle: saline with Tween-80): 3 of 4 | survivor count (dose: 200.0 mg/kg/injection, schedule: Q01DX005 (ip), vehicle: saline with Tween-80): 5 of 5

NC(=S)n1nc(-c2cccs2)c(N=Nc2ccc(Cl)cc2)c1C(F)(F)F
survivor count [1]: 6 of 6

CCOC(=O)c1cn[nH]c1N
survivor count (dose: 100.0 mg/kg/injection, schedule: Q01DX009 (ip), vehicle: Klucel (hydroxypropylcellulose) (HPC)): 6 of 6 | survivor count (dose: 200.0 mg/kg/injection, schedule: Q01DX009 (ip), vehicle: Klucel (hydroxypropylcellulose) (HPC)): 6 of 6

OCCNC(=S)Nc1ccccc1
survivor count (dose: 30.0 mg/kg/injection, schedule: Q01DX009 (ip), vehicle: saline with Tween-80): 6 of 6

CC(=O)OCN(C)N=Nc1ccc(C#N)cc1
survivor count [1]: 6 of 6

O=C(O)/C=C(\F)C(=O)O
survivor count (dose: 200.0 mg/kg/injection, schedule: Q01DX005 (ip), vehicle: saline): 5 of 6 | survivor count (dose: 400.0 mg/kg/injection, schedule: Q01DX005 (ip), vehicle: saline): 2 of 6 and 3 of 6

O=C(Cc1cccc2c(=O)cc(-c3ccccc3)oc12)OCCN1CCOCC1
survivor count (dose: 200.0 mg/kg/injection, schedule: Q01DX009 (ip), vehicle: saline): 6 of 6

CC(=C\c1ccc(Cl)c(Cl)c1)/C(C)=N/NC(N)=Nc1ccc(C)cc1
survivor count (dose: 100.0 mg/kg/injection, schedule: Q04DX002 (ip), vehicle: saline with Tween-80): 1 of 6
